Experimental data from paper PMC9588774.
Results are given in words; binding and its absence hold for the method and conditions named. In cells and extracts the contact can be indirect. Some results given as binding are weak or reduced against the parent protein; the word gives no strength.

Target: T1, full-length CD95 (membrane wild-type CD95) expressed in CEM-IRC cells, P25445
T1 chain: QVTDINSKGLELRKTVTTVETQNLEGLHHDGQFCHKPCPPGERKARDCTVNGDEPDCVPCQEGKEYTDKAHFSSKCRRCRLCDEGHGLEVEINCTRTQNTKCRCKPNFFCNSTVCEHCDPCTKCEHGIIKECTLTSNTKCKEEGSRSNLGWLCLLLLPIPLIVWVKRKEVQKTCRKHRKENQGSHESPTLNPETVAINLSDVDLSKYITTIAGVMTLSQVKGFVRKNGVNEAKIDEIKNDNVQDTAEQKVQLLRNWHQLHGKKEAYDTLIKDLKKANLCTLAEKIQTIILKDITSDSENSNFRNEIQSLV
Assay: co-IP; CEM-IRC clones treated with 100 ng/ml IgCD95L for the indicated times at 37 °C, lysed in HEPES-Triton X-100 buffer; CD95 DISC immunoprecipitated with APO1-3 and protein A-Sepharose; FADD and caspase-8 by immunoblot
Details: remark: other sources report otherwise

B1: Fas-associated death domain (FADD) protein, Q13158 1-208 (protein)
chain: MDPFLVLLHSVSSSLSSSELTELKFLCLGRVGKRKLERVQSGLDLFSMLLEQNDLEPGHTELLRELLASLRRHDLLRRVDDFEAGAAAGAAPGEEDLCAAFNVICDNVGKDWRRLARQLKVSDTKIDSIEDRYPRNLTERVRESLRIWKNTEKENATVAHLVGALRSCQMNLVADLVQEVQQARDLQNRSGAMSPMSWNSDASTSEAS
For B1, the binding was “binds”.

B2: caspase-8, Q14790 1-479 (enzyme)
chain: MDFSRNLYDIGEQLDSEDLASLKFLSLDYIPQRKQEPIKDALMLFQRLQEKRMLEESNLSFLKELLFRINRLDLLITYLNTRKEEMERELQTPGRAQISAYRVMLYQISEEVSRSELRSFKFLLQEEISKCKLDDDMNLLDIFIEMEKRVILGEGKLDILKRVCAQINKSLLKIINDYEEFSKERSSSLEGSPDEFSNGEELCGVMTISDSPREQDSESQTLDKVYQMKSKPRGYCLIINNHNFAKAREKVPKLHSIRDRNGTHLDAGALTTTFEELHFEIKPHDDCTVEQIYEILKIYQLMDHSNMDCFICCILSHGDKGIIYGTDGQEAPIYELTSQFTGLKCPSLAGKPKVFFIQACQGDNYQKGIPVETDSEEQPYLEMDLSSPQTRYIPDEADFLLGMATVNNCVSYRNPAEGTWYIQSLCQSLRERCPRGDDILTILTEVNYEVSNKDDKKNMGKQMPQPTFTLRKKLVFPSD
With B2 the binding was “binds”.
